Results taken from the supplement of paper PMC10849652.
This is one part of the list.

The chains behind the UniProt entries cited, without tags or fusion partners. Where a name states a change or a piece, a line headed by the entry shows the natural chain unless it says otherwise.
UniProt O75882: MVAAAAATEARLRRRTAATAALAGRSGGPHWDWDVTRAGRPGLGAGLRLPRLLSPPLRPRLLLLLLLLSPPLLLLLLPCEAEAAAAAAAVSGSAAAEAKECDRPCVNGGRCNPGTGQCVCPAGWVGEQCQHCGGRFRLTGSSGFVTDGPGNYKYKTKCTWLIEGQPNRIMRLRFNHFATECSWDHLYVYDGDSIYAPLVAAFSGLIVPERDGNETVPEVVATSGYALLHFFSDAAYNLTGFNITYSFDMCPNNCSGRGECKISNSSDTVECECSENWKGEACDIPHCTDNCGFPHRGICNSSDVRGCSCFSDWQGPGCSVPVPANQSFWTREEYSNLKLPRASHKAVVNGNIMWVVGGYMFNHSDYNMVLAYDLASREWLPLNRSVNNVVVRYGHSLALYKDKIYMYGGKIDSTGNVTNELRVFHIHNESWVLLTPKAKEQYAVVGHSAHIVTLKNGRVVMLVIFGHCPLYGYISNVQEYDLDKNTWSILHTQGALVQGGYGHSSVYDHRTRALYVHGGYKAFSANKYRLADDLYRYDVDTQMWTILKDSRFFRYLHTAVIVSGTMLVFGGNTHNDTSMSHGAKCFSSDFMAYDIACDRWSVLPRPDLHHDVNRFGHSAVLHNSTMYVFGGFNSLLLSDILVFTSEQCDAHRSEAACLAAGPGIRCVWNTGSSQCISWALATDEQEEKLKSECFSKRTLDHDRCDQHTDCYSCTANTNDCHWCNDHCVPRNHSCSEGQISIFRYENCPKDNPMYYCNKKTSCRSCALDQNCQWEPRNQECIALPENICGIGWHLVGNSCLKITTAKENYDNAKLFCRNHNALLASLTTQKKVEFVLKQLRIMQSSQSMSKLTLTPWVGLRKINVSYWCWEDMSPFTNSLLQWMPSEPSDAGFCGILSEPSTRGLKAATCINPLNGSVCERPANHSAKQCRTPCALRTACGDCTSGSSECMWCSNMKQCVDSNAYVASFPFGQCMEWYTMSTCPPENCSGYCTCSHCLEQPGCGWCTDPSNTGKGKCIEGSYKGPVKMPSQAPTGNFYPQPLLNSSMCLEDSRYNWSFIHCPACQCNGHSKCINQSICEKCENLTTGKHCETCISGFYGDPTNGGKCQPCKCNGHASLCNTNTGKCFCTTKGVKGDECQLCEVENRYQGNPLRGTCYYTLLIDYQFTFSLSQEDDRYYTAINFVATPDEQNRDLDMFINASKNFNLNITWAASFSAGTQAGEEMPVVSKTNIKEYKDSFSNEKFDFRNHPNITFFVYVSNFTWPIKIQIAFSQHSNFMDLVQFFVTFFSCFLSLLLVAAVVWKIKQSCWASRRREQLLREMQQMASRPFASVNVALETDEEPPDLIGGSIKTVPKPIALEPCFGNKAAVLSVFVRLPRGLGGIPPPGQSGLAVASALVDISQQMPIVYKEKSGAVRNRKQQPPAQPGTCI
UniProt Q15904, whole entry, looked up: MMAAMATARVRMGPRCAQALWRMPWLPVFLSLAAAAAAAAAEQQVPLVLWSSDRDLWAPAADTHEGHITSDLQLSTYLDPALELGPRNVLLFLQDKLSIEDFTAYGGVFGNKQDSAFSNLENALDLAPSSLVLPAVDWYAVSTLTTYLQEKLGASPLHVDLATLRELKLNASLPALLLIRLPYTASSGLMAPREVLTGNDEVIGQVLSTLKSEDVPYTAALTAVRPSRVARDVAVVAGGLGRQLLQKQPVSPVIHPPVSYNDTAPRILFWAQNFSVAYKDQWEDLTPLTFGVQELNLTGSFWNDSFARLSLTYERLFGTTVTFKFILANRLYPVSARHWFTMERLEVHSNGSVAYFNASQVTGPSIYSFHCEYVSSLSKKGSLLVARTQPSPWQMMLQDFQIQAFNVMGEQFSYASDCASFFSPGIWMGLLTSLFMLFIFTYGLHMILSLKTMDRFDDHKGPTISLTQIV
UniProt Q9Y2G3: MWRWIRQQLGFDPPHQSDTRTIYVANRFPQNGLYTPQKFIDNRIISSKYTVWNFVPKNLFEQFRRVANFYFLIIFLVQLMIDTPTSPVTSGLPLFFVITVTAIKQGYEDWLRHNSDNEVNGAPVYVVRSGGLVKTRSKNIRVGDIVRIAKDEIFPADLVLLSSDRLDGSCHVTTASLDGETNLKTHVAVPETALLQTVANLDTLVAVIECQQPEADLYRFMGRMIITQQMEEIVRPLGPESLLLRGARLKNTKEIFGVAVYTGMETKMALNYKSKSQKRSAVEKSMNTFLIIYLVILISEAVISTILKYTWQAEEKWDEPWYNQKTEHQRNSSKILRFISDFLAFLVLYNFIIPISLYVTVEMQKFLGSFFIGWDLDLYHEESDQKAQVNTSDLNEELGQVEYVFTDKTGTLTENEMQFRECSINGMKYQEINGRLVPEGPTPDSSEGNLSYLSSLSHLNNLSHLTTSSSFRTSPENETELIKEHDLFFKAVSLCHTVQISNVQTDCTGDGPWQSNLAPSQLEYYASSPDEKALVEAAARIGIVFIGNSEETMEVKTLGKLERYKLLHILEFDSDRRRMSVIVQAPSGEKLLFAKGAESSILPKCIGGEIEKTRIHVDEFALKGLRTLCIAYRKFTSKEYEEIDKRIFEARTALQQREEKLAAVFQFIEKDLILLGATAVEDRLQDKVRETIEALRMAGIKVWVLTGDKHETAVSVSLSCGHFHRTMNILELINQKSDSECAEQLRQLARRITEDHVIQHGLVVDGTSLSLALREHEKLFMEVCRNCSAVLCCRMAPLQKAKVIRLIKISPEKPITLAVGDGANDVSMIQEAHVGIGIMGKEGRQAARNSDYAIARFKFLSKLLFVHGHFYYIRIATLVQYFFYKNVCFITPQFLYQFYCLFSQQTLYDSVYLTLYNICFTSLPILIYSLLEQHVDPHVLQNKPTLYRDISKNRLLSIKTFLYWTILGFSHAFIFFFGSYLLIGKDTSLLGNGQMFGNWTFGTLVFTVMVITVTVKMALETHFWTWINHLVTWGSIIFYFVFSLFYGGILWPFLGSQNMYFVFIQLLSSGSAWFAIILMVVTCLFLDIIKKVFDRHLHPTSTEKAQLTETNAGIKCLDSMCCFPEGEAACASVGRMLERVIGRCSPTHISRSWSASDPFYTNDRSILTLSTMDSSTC
UniProt Q96GX2: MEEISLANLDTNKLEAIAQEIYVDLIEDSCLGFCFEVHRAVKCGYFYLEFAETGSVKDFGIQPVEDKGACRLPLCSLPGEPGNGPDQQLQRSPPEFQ
UniProt P46100: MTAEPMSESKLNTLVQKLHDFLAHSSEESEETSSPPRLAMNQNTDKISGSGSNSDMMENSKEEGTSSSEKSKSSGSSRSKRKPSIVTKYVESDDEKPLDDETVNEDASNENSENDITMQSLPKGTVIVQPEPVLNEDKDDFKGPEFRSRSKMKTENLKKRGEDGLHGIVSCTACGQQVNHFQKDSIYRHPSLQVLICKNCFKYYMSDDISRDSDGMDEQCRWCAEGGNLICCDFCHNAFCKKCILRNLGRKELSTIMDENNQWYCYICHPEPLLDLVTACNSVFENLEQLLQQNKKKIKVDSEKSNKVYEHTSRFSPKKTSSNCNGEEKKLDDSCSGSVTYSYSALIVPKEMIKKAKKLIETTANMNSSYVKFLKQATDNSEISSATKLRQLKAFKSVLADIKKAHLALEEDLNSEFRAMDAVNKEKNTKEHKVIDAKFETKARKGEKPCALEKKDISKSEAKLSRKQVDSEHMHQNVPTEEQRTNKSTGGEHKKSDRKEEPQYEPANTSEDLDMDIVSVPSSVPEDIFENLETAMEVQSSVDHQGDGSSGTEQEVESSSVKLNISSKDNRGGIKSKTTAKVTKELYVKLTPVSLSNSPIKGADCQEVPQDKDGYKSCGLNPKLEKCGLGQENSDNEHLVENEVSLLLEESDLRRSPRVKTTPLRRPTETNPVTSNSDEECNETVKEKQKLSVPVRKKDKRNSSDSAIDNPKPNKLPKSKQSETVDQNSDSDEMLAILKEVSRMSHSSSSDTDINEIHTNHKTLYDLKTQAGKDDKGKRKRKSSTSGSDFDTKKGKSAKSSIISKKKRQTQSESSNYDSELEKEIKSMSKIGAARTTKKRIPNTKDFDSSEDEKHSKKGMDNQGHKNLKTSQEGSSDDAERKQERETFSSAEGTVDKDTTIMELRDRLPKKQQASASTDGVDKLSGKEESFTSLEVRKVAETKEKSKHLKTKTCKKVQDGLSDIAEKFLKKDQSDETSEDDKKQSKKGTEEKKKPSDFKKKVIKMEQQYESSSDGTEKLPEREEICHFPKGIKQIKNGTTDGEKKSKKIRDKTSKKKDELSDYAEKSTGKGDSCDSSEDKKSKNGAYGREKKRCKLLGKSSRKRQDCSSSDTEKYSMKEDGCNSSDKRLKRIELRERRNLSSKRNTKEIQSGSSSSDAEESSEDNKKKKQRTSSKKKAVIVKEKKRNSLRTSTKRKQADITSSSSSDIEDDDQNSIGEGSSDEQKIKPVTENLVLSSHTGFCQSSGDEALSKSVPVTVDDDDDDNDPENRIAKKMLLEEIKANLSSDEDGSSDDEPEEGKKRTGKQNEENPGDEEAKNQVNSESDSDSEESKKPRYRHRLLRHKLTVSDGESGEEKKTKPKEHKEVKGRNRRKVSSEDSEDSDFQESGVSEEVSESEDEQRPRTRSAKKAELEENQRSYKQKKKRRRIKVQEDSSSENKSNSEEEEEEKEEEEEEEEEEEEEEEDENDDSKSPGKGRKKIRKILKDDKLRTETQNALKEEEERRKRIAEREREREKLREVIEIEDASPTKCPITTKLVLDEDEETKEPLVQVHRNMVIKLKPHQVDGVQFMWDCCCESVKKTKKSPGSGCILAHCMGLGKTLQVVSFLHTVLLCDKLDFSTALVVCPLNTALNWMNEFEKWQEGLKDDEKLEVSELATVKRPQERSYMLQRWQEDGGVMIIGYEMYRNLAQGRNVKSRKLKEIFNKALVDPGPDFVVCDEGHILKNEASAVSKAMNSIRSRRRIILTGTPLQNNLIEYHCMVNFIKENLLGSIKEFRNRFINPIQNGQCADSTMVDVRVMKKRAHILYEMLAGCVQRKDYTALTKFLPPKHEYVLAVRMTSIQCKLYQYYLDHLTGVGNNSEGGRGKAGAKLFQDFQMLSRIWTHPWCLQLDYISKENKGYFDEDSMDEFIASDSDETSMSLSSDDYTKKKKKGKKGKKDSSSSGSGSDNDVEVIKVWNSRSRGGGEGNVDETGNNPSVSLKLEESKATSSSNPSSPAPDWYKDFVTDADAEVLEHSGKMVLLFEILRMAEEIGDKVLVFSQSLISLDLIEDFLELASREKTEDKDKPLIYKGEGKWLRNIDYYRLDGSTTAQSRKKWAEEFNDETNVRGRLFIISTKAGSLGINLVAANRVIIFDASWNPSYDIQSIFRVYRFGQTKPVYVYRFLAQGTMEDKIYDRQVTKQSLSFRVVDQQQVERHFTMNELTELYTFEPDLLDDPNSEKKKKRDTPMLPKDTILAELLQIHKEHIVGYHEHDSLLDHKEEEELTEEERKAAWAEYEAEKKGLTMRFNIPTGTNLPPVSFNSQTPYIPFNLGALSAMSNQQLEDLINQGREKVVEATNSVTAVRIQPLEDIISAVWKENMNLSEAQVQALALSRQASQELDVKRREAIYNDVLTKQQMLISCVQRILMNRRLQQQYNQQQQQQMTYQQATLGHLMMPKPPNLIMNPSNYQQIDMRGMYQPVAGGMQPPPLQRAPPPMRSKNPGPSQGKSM
UniProt Q5T6C5: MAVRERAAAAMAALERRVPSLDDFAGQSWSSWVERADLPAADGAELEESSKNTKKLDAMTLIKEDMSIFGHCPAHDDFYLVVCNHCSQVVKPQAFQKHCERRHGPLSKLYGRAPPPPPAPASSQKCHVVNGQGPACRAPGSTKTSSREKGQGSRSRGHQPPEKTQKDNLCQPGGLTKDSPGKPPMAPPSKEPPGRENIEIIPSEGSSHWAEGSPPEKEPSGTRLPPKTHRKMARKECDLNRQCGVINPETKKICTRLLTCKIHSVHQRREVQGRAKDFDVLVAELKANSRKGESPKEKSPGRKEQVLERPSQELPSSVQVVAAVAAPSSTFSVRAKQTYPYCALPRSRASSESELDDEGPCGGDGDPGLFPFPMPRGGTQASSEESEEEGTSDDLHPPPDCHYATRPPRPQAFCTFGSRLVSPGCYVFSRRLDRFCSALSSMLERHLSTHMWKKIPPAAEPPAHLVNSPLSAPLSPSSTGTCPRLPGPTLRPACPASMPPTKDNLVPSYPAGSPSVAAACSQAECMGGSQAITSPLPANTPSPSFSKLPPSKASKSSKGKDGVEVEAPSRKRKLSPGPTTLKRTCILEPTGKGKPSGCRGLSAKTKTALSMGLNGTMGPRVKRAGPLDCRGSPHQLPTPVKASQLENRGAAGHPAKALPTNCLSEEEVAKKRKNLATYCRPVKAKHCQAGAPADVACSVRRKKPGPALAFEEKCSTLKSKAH

Columns and labels:
Test in all cases: log2 fold change, soluble protein after heating vs DMSO (PISA); higher = thermal stabilisation; K562 lysate, 10 uM; active = over 0.2 and 3.5 SD of the protein, either way, in both replicates (recomputed)
vemurafenib = compound: CCCS(=O)(=O)Nc1ccc(F)c(C(=O)c2c[nH]c3ncc(-c4ccc(Cl)cc4)cc23)c1F [vemurafenib]
Procedure, shortened: (§1)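 A 30 min treatment with 10 μM compound was applied to crude K562 extract at 1 mg/mL protein in PBS pH 7.4 with 1 mM MgCl2. Heating for 3 min spanned 48°C-58°C, after which aliquots were pooled, adjusted to 0.5% NP-40 at 4°C and spun at 21,000xg for 90 min. TMTpro 16plex LC-MS/MS of the supernatant, with channel sums equalised, gave values recorded as log-two fold change in thermal stability against solvent controls, from duplicates.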

[1] = compound: CCCS(=O)(=O)Nc1ccc(F)c(C(=O)c2c[nH]c3ncc(Cl)cc23)c1F
Procedure, shortened: as §1

barasertib = compound: CCN(CCCOc1ccc2c(Nc3cc(CC(=O)Nc4cccc(F)c4)[nH]n3)ncnc2c1)CCOP(=O)(O)O [barasertib]
Procedure, shortened: as §1

[2] = compound: CC[C@@H]1C(=O)N(C)c2cnc(Nc3ccc(C(=O)NC4CCN(C)CC4)cc3OC)nc2N1C1CCCC1
Procedure, shortened: as §1

volasertib = compound: CC[C@@H]1C(=O)N(C)c2cnc(Nc3ccc(C(=O)N[C@H]4CC[C@H](N5CCN(CC6CC6)CC5)CC4)cc3OC)nc2N1C(C)C [volasertib]
Procedure, shortened: as §1

[3] = compound: CCn1c(C(=O)N(C2CC2)C2CC2)cc2c3c(ncn3C)c(Nc3cc(C)n(C)n3)nc21
Procedure, shortened: as §1

[4] = compound: CCn1cc(-c2ccnc3[nH]c(-c4cccc(CN(C)C)c4)cc23)c(-c2ccc(NC(=O)N(C)C)cc2)n1
Procedure, shortened: as §1

[5] = compound: CN1CCC(CNc2ccc3ncc(-c4cccc(OC(F)(F)F)c4)n3n2)CC1
Procedure, shortened: as §1

saracatinib = compound: CN1CCN(CCOc2cc(OC3CCOCC3)c3c(Nc4c(Cl)ccc5c4OCO5)ncnc3c2)CC1 [saracatinib]
Procedure, shortened: as §1

sotrastaurin = compound: CN1CCN(c2nc(C3=C(c4c[nH]c5ccccc45)C(=O)NC3=O)c3ccccc3n2)CC1 [sotrastaurin]
Procedure, shortened: as §1

alvocidib = compound: CN1CC[C@H](c2c(O)cc(O)c3c(=O)cc(-c4ccccc4Cl)oc23)[C@H](O)C1 [alvocidib]
Procedure, shortened: as §1

Tubastatin A = compound: CN1CCc2c(c3ccccc3n2Cc2ccc(C(=O)NO)cc2)C1 [Tubastatin A]
Procedure, shortened: as §1

[6] = compound: CNC(=O)C1=CC=CC=C1NC2=NC(=NC=C2Cl)NC3=C(C=C(C=C3)N4CCOCC4)OC
Procedure, shortened: as §1

defactinib = compound: CNC(=O)c1ccc(Nc2ncc(C(F)(F)F)c(NCc3nccnc3N(C)S(C)(=O)=O)n2)cc1 [defactinib]
Procedure, shortened: as §1

[7] = compound: CNc1nc(-c2ccc3c(N)n[nH]c3c2)cc(N2C[C@@H](C(=O)NC3CCCCC3)CC[C@H]2C)n1
Procedure, shortened: as §1

encorafenib = compound: COC(=O)N[C@@H](C)CNc1nccc(-c2cn(C(C)C)nc2-c2cc(Cl)cc(NS(C)(=O)=O)c2F)n1 [encorafenib]
Procedure, shortened: as §1

[8] = compound: COC(=O)[C@H](CCSC)NC(=O)C1=C(C=C(C=C1)NC[C@H](CS)N)C2=CC=CC=C2
Procedure, shortened: as §1

[9] = compound: COc1cc2nc(-c3cc(F)ccc3O)nc(N[C@@H]3CNC[C@H]3C(C)(C)O)c2cc1OC
Procedure, shortened: as §1

alisertib = compound: COc1cc(Nc2ncc3c(n2)-c2ccc(Cl)cc2C(c2c(F)cccc2OC)=NC3)ccc1C(=O)O [alisertib]
Procedure, shortened: as §1

gefitinib = compound: COc1cc2ncnc(Nc3ccc(F)c(Cl)c3)c2cc1OCCCN1CCOCC1 [gefitinib]
Procedure, shortened: as §1

Measured: log2 fold change

ATRN (UniProt O75882)
inactive: vemurafenib -0.04 | [1] 0.078 | barasertib -0.04 | [2] 0.205 | volasertib -0.005 | [3] 0.063 | [4] -0.155 | [5] 0.184 | saracatinib 0.086 | sotrastaurin 0.046 | alvocidib -0.032 | Tubastatin A -0.17 | [6] 0.015 | defactinib 0.076 | [7] -0.035 | encorafenib 0.099 | [8] -0.075 | [9] 0.005

ATP5F1B (UniProt F8W0P7)
inactive: vemurafenib -0.141 | saracatinib 0.107 | [6] 0.043 | defactinib 0.075 | [7] 0.086

ATP6AP1 (UniProt Q15904)
inactive: vemurafenib -0.017 | [1] -0.007 | barasertib -0.072 | [2] -0.039 | volasertib 0.022 | [3] -0.051 | [4] -0.109 | [5] 0.097 | saracatinib 0.005 | sotrastaurin 0.017 | alvocidib -0.045 | Tubastatin A 0.073 | [6] 0.011 | defactinib -0.054 | [7] -0.032 | encorafenib 0.021 | [8] -0.09 | alisertib -0.016 | [9] 0.026 | gefitinib 0.064

ATG10 (UniProt Q9H0Y0)
inactive: vemurafenib 0.026 | barasertib 0.092 | [2] 0.016 | [3] 0.012 | [4] -0.021 | [5] 0.01 | saracatinib -0.021 | sotrastaurin 0.038 | alvocidib 0.106 | Tubastatin A -0.035 | [6] 0.01 | defactinib -0.037 | [7] -0.022 | encorafenib 0.024 | [8] 0.025 | alisertib 0.032 | gefitinib 0.04

ATP11B (UniProt Q9Y2G3)
inactive: vemurafenib 0.011 | [1] -0.016 | barasertib 0.014 | [2] 0.014 | volasertib 0.03 | [3] 0.029 | [4] -0.189 | [5] 0.081 | saracatinib 0.016 | sotrastaurin 0.017 | alvocidib -0.093 | Tubastatin A 0.018 | [6] 0.015 | defactinib -0.018 | [7] 0.009 | encorafenib 0.025 | [8] -0.029 | alisertib -0.006 | [9] 0.005 | gefitinib 0.035

ATXN2L (UniProt H3BUF6)
inactive: vemurafenib 0.07 | [1] 0.062 | [2] 0.124 | volasertib 0.06 | [4] 0 | [5] 0.036 | saracatinib -0.042 | sotrastaurin 0.074 | alvocidib -0.063 | [6] 0.028 | defactinib 0.106 | [7] -0.103 | encorafenib 0.058 | [8] -0.115 | alisertib -0.022 | [9] -0.062 | gefitinib -0.133

ATXN7L3B (UniProt Q96GX2)
inactive: vemurafenib 0.006 | barasertib -0.054 | [2] -0.149 | [3] -0.068 | [4] -0.054 | [5] 0.015 | saracatinib 0.007 | sotrastaurin 0.005 | alvocidib 0.029 | Tubastatin A 0.011 | [6] -0.048 | defactinib -0.016 | [7] 0 | encorafenib -0.136 | [8] 0.131 | alisertib 0.006 | gefitinib 0

ATP5MF-PTCD1 (UniProt G3V325)
inactive: vemurafenib -0.003 | [1] 0.01 | barasertib -0.054 | [2] -0.051 | volasertib -0.027 | [3] 0.06 | [4] -0.077 | [5] 0.024 | saracatinib -0.038 | sotrastaurin 0.023 | alvocidib -0.056 | Tubastatin A -0.008 | [6] -0.025 | defactinib 0.047 | [7] -0.039 | encorafenib 0 | [8] 0.014 | alisertib -0.042 | [9] 0.011 | gefitinib -0.02

AUH (UniProt Q13825)
inactive: vemurafenib 0.083 | [1] -0.009 | barasertib 0.004 | [2] 0.042 | volasertib -0.093 | [3] 0 | [4] 0.1 | [5] 0 | saracatinib -0.101 | sotrastaurin 0.047 | alvocidib 0.221 | Tubastatin A 0.147 | [6] 0.057 | defactinib -0.169 | [7] 0.049 | encorafenib 0.015 | [8] 0.023 | [9] -0.052

ATP6AP2 (UniProt O75787)
inactive: vemurafenib 0.041 | [1] -0.043 | barasertib 0.025 | [2] 0.056 | volasertib -0.095 | [3] 0.033 | [4] 0.023 | [5] -0.061 | saracatinib 0.051 | sotrastaurin 0.007 | alvocidib 0.079 | Tubastatin A -0.034 | [6] 0.022 | defactinib 0.099 | [7] 0.003 | encorafenib 0.044 | [8] 0.015 | alisertib -0.009 | [9] -0.031 | gefitinib -0.02

Two entries drawn at random from the list so far:
ATP5MF-PTCD1 (UniProt G3V325)
inactive: vemurafenib -0.003 | [1] 0.01 | barasertib -0.054 | [2] -0.051 | volasertib -0.027 | [3] 0.06 | [4] -0.077 | [5] 0.024 | saracatinib -0.038 | sotrastaurin 0.023 | alvocidib -0.056 | Tubastatin A -0.008 | [6] -0.025 | defactinib 0.047 | [7] -0.039 | encorafenib 0 | [8] 0.014 | alisertib -0.042 | [9] 0.011 | gefitinib -0.02

ATXN2L (UniProt H3BUF6)
inactive: vemurafenib 0.07 | [1] 0.062 | [2] 0.124 | volasertib 0.06 | [4] 0 | [5] 0.036 | saracatinib -0.042 | sotrastaurin 0.074 | alvocidib -0.063 | [6] 0.028 | defactinib 0.106 | [7] -0.103 | encorafenib 0.058 | [8] -0.115 | alisertib -0.022 | [9] -0.062 | gefitinib -0.133

(listing goes on)

ATRX (UniProt P46100)
inactive: vemurafenib -0.135 | barasertib 0.149 | [2] -0.075 | [3] 0.194 | [4] 0.001 | [5] -0.162 | saracatinib 0.058 | sotrastaurin 0.176 | alvocidib 0.018 | Tubastatin A -0.111 | [6] 0.179 | defactinib -0.05 | [7] -0.15 | encorafenib 0.04 | [8] -0.034

ATXN1L (UniProt P0C7T5)
inactive: vemurafenib -0.008 | barasertib -0.096 | [2] 0.089 | [3] -0.078 | [4] -0.001 | [5] -0.047 | sotrastaurin 0.002 | alvocidib 0.026 | Tubastatin A -0.019 | defactinib -0.065 | encorafenib 0.181 | [8] 0.081 | alisertib -0.044 | gefitinib 0.11

ATP1B2 (UniProt P14415)
inactive: vemurafenib -0.095 | [1] 0.035 | barasertib -0.13 | volasertib -0.037 | [3] -0.064 | saracatinib 0.073 | Tubastatin A 0.068 | [6] 0.045 | defactinib 0.04 | [7] -0.041 | [9] 0.006

ATXN7L2 (UniProt Q5T6C5)
inactive: vemurafenib 0.001 | defactinib 0.101
